Mtb heat-shock: 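Assay on Mycobacterium tuberculosis, filed only as a heat shock assay from Cornell; the read-out is not stated. The concentration is filed as 10 mM, unlikely as a test dose, so the dose is not known. Higher reads as stronger inhibition (inferred: compounds with an IC50 in retests scored well above the rest). Size under these conditions: about 69,000 compounds, about 930 of them at 50% or above in at least one test.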
LdMetRS: 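Methionyl-tRNA synthetase (putative), Leishmania donovani (UniProt E9BF75). Primary screen of methionyl-tRNA synthetase; the read-out is not stated. The test concentration is not given. Values are per cent inhibition. About 68,000 compounds were tested under these conditions; 0.035% (about 24) showed 50% or more at least once.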
Mtb growth Cornell: 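Whole-cell assay for inhibitors of Mycobacterium tuberculosis growth, labelled Cornell in the record; the read-out is not stated. The concentration is filed as 10 mM, unlikely as a test dose, so the dose is not known. The record gives no direction; compounds strong in two other growth screens of this library score well above the rest, so higher reads as stronger inhibition. About 53,000 compounds were tested under these conditions; 1.7% (about 900) showed 50% or more at least once.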

Protein sequences, listed by entry. Tags and fused reporters are not part of them.
UniProt E9BF75, entry or part of it: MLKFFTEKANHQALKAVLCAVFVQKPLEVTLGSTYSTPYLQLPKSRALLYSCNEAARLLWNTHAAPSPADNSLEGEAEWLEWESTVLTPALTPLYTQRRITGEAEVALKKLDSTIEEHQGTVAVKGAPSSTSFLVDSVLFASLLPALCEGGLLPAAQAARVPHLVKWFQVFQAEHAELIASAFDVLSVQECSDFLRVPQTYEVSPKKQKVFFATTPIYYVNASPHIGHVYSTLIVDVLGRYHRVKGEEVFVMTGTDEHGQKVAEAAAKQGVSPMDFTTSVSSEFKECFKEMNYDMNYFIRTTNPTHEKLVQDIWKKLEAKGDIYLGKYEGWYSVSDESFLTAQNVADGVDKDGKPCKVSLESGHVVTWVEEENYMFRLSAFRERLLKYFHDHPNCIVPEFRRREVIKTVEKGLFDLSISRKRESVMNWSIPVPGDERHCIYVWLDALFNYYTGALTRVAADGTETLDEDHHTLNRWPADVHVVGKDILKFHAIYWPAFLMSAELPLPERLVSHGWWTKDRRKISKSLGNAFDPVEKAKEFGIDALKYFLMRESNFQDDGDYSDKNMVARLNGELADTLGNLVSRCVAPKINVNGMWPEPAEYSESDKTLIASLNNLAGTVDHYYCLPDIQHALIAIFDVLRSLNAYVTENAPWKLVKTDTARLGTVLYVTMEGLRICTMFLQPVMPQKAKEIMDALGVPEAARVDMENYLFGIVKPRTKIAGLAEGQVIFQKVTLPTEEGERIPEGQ

All values are in %.
How 0% and 100% were set is not recorded. Most values in the screen are low, and negative values occur.
The compounds are a random part of those screened.
Two or more numbers in one place are separate tests of the same structure; such repeats can differ widely.
A dash means the value is not listed here; it may have been measured.

| structure | Mtb heat-shock | LdMetRS | Mtb growth Cornell |
|---|---|---|---|
| `Cl.NC1(c2nc(C(F)(F)F)cc(=O)[nH]2)CCCC1` | -79.92% | - | - |
| `Cc1nccn1CCCNc1nccnc1C#N` | -15.75% | 12.72% | -7.703% |
| `CSC(C)C(=O)N(C)CC(=O)Nc1ccc(Br)cn1` (centres unmarked) | -5.133% | 23.41% | 2.003% |
| `O=C(c1cc[nH]n1)N1CCCC1c1cncc(CN2CCOCC2)n1` (centres unmarked) | -5.513% | 16.19% | 18.6% |
| `Cn1cc(C2SCC(=O)Nc3c2c(=O)[nH]n3C2CCOCC2)cn1` (centres unmarked) | -3.235% | 2.121% | -33.09% |
| `CCC(=O)N1CCN(c2nc(C)nc3c(C)nn(C)c23)CC1` | -10.64% | 7.789% | - |
| `O=C(O)C(F)(F)F.O=C(O)C(F)(F)F.[H][C@@]12COC[C@]1(CNC(=O)c1ccno1)CN(Cc1ccncc1)C2` | -7.219% | - | 21.64% |
| `CCOc1ccccc1N1CCN(C(=O)c2cc[nH]n2)CC1` | -9.518% | 25.7% | - |
| `CCn1nc(C)cc1C(=O)OCCNc1ncnc2ccccc12` | 16.38% | 2.747% | - |
| `COc1cccc(CN2C[C@@H]3COC[C@]3(CN3CCOCC3)C2)c1` | - | 6.667% | - |
| `O=C(c1ccc(Br)o1)N1CCCCC1Cn1cccn1` (centres unmarked) | 5.551% | 8.571% | 10.29% |
| `CC(C)CN1CCCC(c2nc(O)c3cc(F)ccc3n2)C1` (centres unmarked) | -31.97% | 4.571% | - |
| `Cc1ccc(S(=O)(=O)N2CC(C)Oc3ncccc32)c(C)c1` (centres unmarked) | -9.066% | 5.163% | 45.29% |
| `CN1C(=O)CCC12CCN(S(=O)(=O)c1ccccc1)CC2` | -0.5621% | 9.444% | - |
| `CC(C)Oc1ccc(C(=O)NCc2ccc3c(c2)CCCN3C)cn1` | 0.7461% | 16.52% | -33.05% |
| `Cc1ccccc1OC1CCN(CC(=O)Nc2cnn(C)c2C)CC1` | - | 15.75% | - |
| `CCCNC(=O)NC(=O)CNC(C)(C)c1ccc2c(c1)OCO2` | -10.73% | 25.56% | 0.4574% |
| `O=C(O)C(F)(F)F.O=C(O)C(F)(F)F.c1c(CN2CCCC2)nc2n1CCN(C1CCOCC1)C2` | 1.174% | - | 3.362% |
| `CC(C)Oc1ccc2c(NC(=O)CN(C)C)nn(CC(F)(F)F)c2c1` | -6.017% | 14.98% | 12.13% |
| `Cc1n[nH]c(C)c1NC(=O)CN1CCCC1c1c(C)nn(C)c1C` (centres unmarked) | 9.192% | 20.55% | - |
| `Cc1cccc(C)c1OC1CCN(Cc2ccn(C)c(=O)c2)CC1` | -31.62% | 20.23% | 2.488% |
| `[H][C@]12CC[C@]([H])(CN(c3cnccn3)C1)N(C(=O)c1cccnc1SC)C2` | 18.23% | - | -53.8% |
| `COc1ccc(NC(=O)Cn2nc(C)c(C)cc2=O)c(OC)c1` | -18.89% | 12.71% | 11.71% |
| `CCOc1cccc2c1OCC(C(=O)NC(C)Cn1cccn1)=C2` (centres unmarked) | -13.14% | 4.416% | 7.345% |
| `CCOc1ccc(-n2nnc(C(=O)O)c2-c2ccccn2)cc1` | 12.62% | 14.08% | 16.11% |
| `CNC(=O)[C@@H]1CC[C@@H]2[C@@H](CCN2C(=O)N(C)C)O1` | - | 4.71% | - |
| `COCC(=O)NCC1CCN(Cc2ccsc2)CC1` | -3.56% | 7.324% | 6.166% |
| `O=C(CCc1ccc(C(F)(F)F)cc1)N1CCCS1(=O)=O` | -9.888% | 10.99% | -2.129% |
| `COC(=O)C(C)(C)NC(=O)C1CC(=O)N(C2CC2)C1` (centres unmarked) | -0.7689% | 10.43% | 2.157% |
| `CC1=Nc2c(c(=O)[nH]n2C2CCCC2)C(c2cccnc2)S1` (centres unmarked) | -8.042% & 5.012% | 3.359% & 12.83% | -11.66% & 22.15% |
| `CC(C(=O)Nc1ccc(Cl)cn1)n1ccc(C(F)(F)F)n1` (centres unmarked) | -19.25% | 18.7% | 24.15% |
| `O=C(O)C(F)(F)F.O=C(O)C(F)(F)F.[H][C@@]12CCN(Cc3cccs3)C[C@]1([H])[C@@H](CN(C)Cc1ccco1)OC2` | 3.684% | - | 9.072% |
| `CC(C)n1nc2c(cc1=O)CN(Cc1nc3ccccc3o1)CC2` | -4.452% | 9.714% | -18.24% |
| `CN1CCN(C(=O)c2nc3c(s2)CCCN3C(=O)C2CC2)CC1.O=C(O)C(F)(F)F` | 5.074% | - | 20.79% |
| `COc1ccc(CNC[C@H]2COCc3nc4cccnc4n32)cn1` | -4.327% | 12.7% | 21.38% |
| `CN(Cc1nnc(C2CC2)n1C)C1CCN(CCc2ccccc2)C1` (centres unmarked) | -15.71% | 9.22% | -3.157% |
| `Cc1n[nH]/c(=N\C(=O)c2c3c(nc4onc(C)c24)CCC3)s1` | -2.227% | 14.92% | 20.11% |
| `CCN(C)S(=O)(=O)NCC(O)c1cc2ccccc2s1` (centres unmarked) | -24.27% | 11.28% | - |
| `CCc1cc(N2CCC(F)(F)CC2)n2nc(C)c(C)c2n1` | 0.5544% | 8.571% | -53.93% |
| `Cn1cnnc1CCC(=O)N1CCCC(OCc2cccnc2)C1` (centres unmarked) | -9.311% | 11.17% | 1.431% |
| `Cc1nc(C2CCCN2CC(=O)N(C)Cc2ccsc2)no1` (centres unmarked) | -11.81% | 10.06% | - |
| `O=C(O)C(F)(F)F.[H][C@]12CCN(C(=O)NCC(C)C)CC[C@@]1([H])S(=O)(=O)N(Cc1cccnc1)C2` | 36.35% | - | -17.3% |
| `O=C(CCN1CCCC1=O)Nc1cnn(-c2ccccc2Cl)c1` | -13.24% | 16.76% | - |
| `CCS(=O)(=O)N1C[C@@H]2COC[C@@H](Cc3nc(C)no3)[C@@H]2C1` | - | 15.68% | - |
| `CN(C)CCn1c(=O)oc2ccc(NC(=O)CC(C)(C)C)cc21` | 0.9258% | 12.68% | 16.94% |
| `Br.Cn1cc(CN2CCOC(c3cccc(-c4cncnc4)n3)C2)cn1` (centres unmarked) | -10.8% | - | 25.35% |
| `CC(C)(C)c1ccc(OCc2nc3c(c(=O)[nH]2)CCNC3)cc1` | 4.626% | 21.32% | - |
| `Cc1cnn(C2CN(Cc3nnc(C4CC4)o3)C2)c1` | 35.28% | 12.78% | - |
| `Fc1cccc(F)c1Cn1c(C2CCNCC2)cc2cccnc21` | - | 19.69% | - |
| `Cc1ccc(CN2C[C@@H]3COC[C@]3(COc3ccc(C#N)cn3)C2)o1` | - | 11.25% | - |
| `[H][C@@]12CCN(C[C@@H]1C(=O)N1CCOCC1)[C@@H](Cn1cc(COC)nn1)C2` | 0.8863% | - | 5.473% |
| `CC(c1cc(F)ccc1F)N1CCN(Cc2nccn2C)CC1` (centres unmarked) | -11.34% | 18.67% | - |

Once more, the final 6:

- CC(C)(C)c1ccc(OCc2nc3c(c(=O)[nH]2)CCNC3)cc1 | Mtb heat-shock: 4.626%; LdMetRS: 21.32%
- Cc1cnn(C2CN(Cc3nnc(C4CC4)o3)C2)c1 | Mtb heat-shock: 35.28%; LdMetRS: 12.78%
- Fc1cccc(F)c1Cn1c(C2CCNCC2)cc2cccnc21 | LdMetRS: 19.69%
- Cc1ccc(CN2C[C@@H]3COC[C@]3(COc3ccc(C#N)cn3)C2)o1 | LdMetRS: 11.25%
- [H][C@@]12CCN(C[C@@H]1C(=O)N1CCOCC1)[C@@H](Cn1cc(COC)nn1)C2 | Mtb heat-shock: 0.8863%; Mtb growth Cornell: 5.473%
- CC(c1cc(F)ccc1F)N1CCN(Cc2nccn2C)CC1 (centres unmarked) | Mtb heat-shock: -11.34%; LdMetRS: 18.67%

The values are deposited in ChEMBL (CHEMBL3988442, “University of Dundee, Small-Polar-MMV Screening Library” (2021)).